In PubChem BioAssay AID1508586 (ICCB-Longwood Screening Facility, Harvard Medical School, 2020) one finds z-score data, which are given here for one compound.

The other results are listed elsewhere or left out.

The nature of this experiment: survival rescue of mitochondrial mutant cells in low glucose, primary screen, MELAS cybrids, Rieske KO mouse fibroblasts, CellTiter-Glo (AID 1508586).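 Note: test concentration not given here; z relative to plate mean and SD of compound and empty wells.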 Conditions: MELAS cybrid survival, CellTiter-Glo 48 h, Rieske KO fibroblast survival, 72 h. On the technique in general: Cellular ATP, detected with luciferase, serves as a proxy for viable cell number.
As for `CN(CCCl)CCCl`, the z-score is -0.271.
